This note sets out measurements from the supplement of paper PMC4604168 (melanoma cell lines).

Molecules are shown by their SMILES. The list shows a part of the results. Single values are uncertain, as repeats are few or missing.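 Imaging used 1,536-well plates; nuclei positive for cleaved PARP by antibody were divided by total DNA-stained nuclei to yield the apoptosis fraction. Doses for screening kept most cells viable, and cell lines differ markedly in resting and induced cleaved-PARP levels.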

In the assay the test system is SkMel30. Put plainly: cleaved PARP positive nuclei fraction relative to DMSO control; melanoma cells; higher = more apoptosis. The note with it: library dose: low library concentration; 72 h.
As to `Cc1ccc(Nc2nccc(N(C)c3ccc4c(C)n(C)nc4c3)n2)cc1S(N)(=O)=O` [Pazopanib] + O=C(Nc1cccc(Cl)c1)Nc1ncc(CCNc2ncnc3ccsc23)s1 [SNS314] (first compound 0.4 µM, partner dose 0.0008 µM), the “cleaved PARP positive nuclei fraction” value was 227%.
To `CC[C@]1(O)C[C@H]2CN(CCc3c([nH]c4ccccc34)[C@@](C(=O)OC)(c3cc4c(cc3OC)N(C=O)[C@H]3[C@@](O)(C(=O)OC)[C@H](OC(C)=O)[C@]5(CC)C=CCN6CC[C@]43[C@@H]65)C2)C1` [vincristine] + COc1ccc(-c2ccc3c(N4CCOCC4)nc(N4C[C@@H](C)O[C@@H](C)C4)nc3n2)cc1CO [KU0063794] (first compound 0.0001 µM, partner dose 0.02 µM) belongs 142%; to `O=c1[nH]nc(Sc2ncc([N+](=O)[O-])s2)n1-c1ccc2c(c1)OCCO2` + COc1cc(Nc2ncc(F)c(Nc3ccc4c(n3)NC(=O)C(C)(C)O4)n2)cc(OC)c1OC [Tamatinib] (first compound 0.2 µM, partner dose 0.4 µM), 83.2%; to `O=C(/C=C/c1cccnc1)NCCCCC1CCN(C(=O)c2ccccc2)CC1` + Cc1cc(N2CCOCC2)cc2[nH]c(-c3c(NC[C@@H](O)c4cccc(Cl)c4)cc[nH]c3=O)nc12 [BMS536924] (first compound 0.01 µM, partner dose 0.2 µM), 76.2%.
With `Cc1cc(Nc2cc(N3CCN(C)CC3)nc(Sc3ccc(NC(=O)C4CC4)cc3)n2)n[nH]1` [Tozasertib] + CC1(C)NC(=O)N(c2ccc([N+](=O)[O-])c(C(F)(F)F)c2)C1=O [nilutamide] (first compound 0.006 µM, partner dose 1 µM) the figure was 66.4%.
To `O=C(/C=C/c1cccnc1)NCCCCC1CCN(C(=O)c2ccccc2)CC1` + O=S(=O)(c1ccccc1)N(CC(F)(F)F)c1ccc(C(O)(C(F)(F)F)C(F)(F)F)cc1 [T0901317] (first compound 0.01 µM, partner dose 1.4 µM) belongs 38.7%; to `CC[C@]1(O)C[C@H]2CN(CCc3c([nH]c4ccccc34)[C@@](C(=O)OC)(c3cc4c(cc3OC)N(C=O)[C@H]3[C@@](O)(C(=O)OC)[C@H](OC(C)=O)[C@]5(CC)C=CCN6CC[C@]43[C@@H]65)C2)C1` [vincristine] + Cc1cc(N2CCOCC2)cc2[nH]c(-c3c(NC[C@@H](O)c4cccc(Cl)c4)cc[nH]c3=O)nc12 [BMS536924] (first compound 0.0001 µM, partner dose 0.2 µM), 248%.
For `O=c1[nH]nc(Sc2ncc([N+](=O)[O-])s2)n1-c1ccc2c(c1)OCCO2` + O=c1cc(-c2cccc3c2Sc2ccccc2S3)oc(N2CCOCC2)c1 [KU55933] (first compound 0.2 µM, partner dose 1 µM), the “cleaved PARP positive nuclei fraction” value came to 68.3%.
With `COc1cc([C@@H]2c3cc4c(cc3[C@@H](O[C@@H]3O[C@@H]5CO[C@@H](C)O[C@H]5[C@H](O)[C@H]3O)[C@H]3COC(=O)[C@H]23)OCO4)cc(OC)c1O` [etoposide] + O=C1NC(=O)/C(=C/c2ccc(-c3ccc(F)cc3O)o2)S1 [AS252424] (first compound 0.02 µM, partner dose 1 µM) the figure was 82.9%; with `Cc1cn(-c2cc(NC(=O)c3ccc(C)c(Nc4nccc(-c5cccnc5)n4)c3)cc(C(F)(F)F)c2)cn1` [nilotinib] + CCCCCCCCCCCC1=C(O)C(=O)C=C(O)C1=O [Embelin] (first compound 0.2 µM, partner dose 1.2 µM), 39.7%.
To `O=c1[nH]nc(Sc2ncc([N+](=O)[O-])s2)n1-c1ccc2c(c1)OCCO2` + CCCCCCCCCCCC1=C(O)C(=O)C=C(O)C1=O [Embelin] (first compound 0.2 µM, partner dose 1.2 µM) belongs 133%; to `O=c1[nH]nc(Sc2ncc([N+](=O)[O-])s2)n1-c1ccc2c(c1)OCCO2` + O=C(Nc1cccc(Cl)c1)Nc1ncc(CCNc2ncnc3ccsc23)s1 [SNS314] (first compound 0.2 µM, partner dose 0.0008 µM), 59%.
On to `CCCCCCCCCCCCCCCCCCOP(=O)([O-])OC1CC[N+](C)(C)CC1` [Perifosine] + NC(=O)Nc1cc(-c2cccc(F)c2)sc1C(=O)N[C@H]1CCCNC1 [AZD7762] (first compound 0.4 µM, partner dose 0.02 µM), for which the “cleaved PARP positive nuclei fraction” value came out at 56.5%.
